Publication PMC4911916
These are yes or no findings as the source states them, for the method shown. In cells and extracts the contact can be indirect. These calls come from enrichment with a bait or labelling near it, and not all partners need be listed.

Protein sequences, listed by entry. Tags and fused reporters are not part of them.
UniProt Q9UPQ9: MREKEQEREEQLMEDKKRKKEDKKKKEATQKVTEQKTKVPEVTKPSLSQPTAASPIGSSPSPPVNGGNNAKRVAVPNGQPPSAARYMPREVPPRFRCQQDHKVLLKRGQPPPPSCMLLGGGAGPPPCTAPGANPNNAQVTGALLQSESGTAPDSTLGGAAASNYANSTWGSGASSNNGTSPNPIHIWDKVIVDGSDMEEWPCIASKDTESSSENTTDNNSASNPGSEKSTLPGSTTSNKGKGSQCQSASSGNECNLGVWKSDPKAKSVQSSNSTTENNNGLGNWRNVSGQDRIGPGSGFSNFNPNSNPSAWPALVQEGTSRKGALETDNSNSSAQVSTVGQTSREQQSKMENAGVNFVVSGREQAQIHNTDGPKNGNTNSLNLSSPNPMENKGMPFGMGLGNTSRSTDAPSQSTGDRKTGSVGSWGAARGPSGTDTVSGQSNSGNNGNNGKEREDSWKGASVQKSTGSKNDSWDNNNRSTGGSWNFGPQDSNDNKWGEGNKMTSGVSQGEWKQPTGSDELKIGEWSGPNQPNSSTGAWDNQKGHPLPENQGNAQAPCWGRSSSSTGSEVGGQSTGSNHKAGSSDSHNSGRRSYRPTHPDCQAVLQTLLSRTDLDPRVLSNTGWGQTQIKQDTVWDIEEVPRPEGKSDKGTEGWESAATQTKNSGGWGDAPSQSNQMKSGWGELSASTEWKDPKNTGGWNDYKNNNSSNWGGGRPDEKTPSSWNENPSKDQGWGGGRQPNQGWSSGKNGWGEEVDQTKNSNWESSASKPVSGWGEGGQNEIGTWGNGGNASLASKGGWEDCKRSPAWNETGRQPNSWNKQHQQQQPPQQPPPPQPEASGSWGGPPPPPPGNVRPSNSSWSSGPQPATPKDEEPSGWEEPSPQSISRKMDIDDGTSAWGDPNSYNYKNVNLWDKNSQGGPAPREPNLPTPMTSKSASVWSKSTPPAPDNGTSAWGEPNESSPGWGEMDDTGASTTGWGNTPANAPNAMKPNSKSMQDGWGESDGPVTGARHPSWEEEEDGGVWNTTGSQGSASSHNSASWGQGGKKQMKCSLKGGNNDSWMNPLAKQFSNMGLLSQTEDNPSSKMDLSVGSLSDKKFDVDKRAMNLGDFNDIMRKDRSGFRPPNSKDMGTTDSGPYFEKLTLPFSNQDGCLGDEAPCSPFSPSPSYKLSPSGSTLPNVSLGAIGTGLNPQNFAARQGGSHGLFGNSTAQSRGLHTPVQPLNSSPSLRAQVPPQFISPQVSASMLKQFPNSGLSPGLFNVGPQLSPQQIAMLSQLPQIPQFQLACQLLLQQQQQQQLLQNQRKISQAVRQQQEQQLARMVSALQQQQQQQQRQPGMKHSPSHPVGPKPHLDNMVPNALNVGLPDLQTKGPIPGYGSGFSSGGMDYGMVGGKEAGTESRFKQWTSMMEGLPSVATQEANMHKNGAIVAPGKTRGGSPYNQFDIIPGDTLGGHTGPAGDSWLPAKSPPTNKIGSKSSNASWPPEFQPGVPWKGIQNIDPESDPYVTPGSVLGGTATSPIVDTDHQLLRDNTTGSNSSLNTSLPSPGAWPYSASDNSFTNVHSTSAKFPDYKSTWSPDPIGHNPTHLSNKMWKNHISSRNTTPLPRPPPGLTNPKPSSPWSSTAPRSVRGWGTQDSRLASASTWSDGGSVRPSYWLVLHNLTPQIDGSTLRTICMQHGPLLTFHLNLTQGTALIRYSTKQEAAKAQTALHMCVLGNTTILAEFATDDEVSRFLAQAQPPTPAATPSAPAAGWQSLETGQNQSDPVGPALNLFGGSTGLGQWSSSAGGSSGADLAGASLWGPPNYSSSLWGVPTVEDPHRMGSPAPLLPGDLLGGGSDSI
UniProt Q9UPY3: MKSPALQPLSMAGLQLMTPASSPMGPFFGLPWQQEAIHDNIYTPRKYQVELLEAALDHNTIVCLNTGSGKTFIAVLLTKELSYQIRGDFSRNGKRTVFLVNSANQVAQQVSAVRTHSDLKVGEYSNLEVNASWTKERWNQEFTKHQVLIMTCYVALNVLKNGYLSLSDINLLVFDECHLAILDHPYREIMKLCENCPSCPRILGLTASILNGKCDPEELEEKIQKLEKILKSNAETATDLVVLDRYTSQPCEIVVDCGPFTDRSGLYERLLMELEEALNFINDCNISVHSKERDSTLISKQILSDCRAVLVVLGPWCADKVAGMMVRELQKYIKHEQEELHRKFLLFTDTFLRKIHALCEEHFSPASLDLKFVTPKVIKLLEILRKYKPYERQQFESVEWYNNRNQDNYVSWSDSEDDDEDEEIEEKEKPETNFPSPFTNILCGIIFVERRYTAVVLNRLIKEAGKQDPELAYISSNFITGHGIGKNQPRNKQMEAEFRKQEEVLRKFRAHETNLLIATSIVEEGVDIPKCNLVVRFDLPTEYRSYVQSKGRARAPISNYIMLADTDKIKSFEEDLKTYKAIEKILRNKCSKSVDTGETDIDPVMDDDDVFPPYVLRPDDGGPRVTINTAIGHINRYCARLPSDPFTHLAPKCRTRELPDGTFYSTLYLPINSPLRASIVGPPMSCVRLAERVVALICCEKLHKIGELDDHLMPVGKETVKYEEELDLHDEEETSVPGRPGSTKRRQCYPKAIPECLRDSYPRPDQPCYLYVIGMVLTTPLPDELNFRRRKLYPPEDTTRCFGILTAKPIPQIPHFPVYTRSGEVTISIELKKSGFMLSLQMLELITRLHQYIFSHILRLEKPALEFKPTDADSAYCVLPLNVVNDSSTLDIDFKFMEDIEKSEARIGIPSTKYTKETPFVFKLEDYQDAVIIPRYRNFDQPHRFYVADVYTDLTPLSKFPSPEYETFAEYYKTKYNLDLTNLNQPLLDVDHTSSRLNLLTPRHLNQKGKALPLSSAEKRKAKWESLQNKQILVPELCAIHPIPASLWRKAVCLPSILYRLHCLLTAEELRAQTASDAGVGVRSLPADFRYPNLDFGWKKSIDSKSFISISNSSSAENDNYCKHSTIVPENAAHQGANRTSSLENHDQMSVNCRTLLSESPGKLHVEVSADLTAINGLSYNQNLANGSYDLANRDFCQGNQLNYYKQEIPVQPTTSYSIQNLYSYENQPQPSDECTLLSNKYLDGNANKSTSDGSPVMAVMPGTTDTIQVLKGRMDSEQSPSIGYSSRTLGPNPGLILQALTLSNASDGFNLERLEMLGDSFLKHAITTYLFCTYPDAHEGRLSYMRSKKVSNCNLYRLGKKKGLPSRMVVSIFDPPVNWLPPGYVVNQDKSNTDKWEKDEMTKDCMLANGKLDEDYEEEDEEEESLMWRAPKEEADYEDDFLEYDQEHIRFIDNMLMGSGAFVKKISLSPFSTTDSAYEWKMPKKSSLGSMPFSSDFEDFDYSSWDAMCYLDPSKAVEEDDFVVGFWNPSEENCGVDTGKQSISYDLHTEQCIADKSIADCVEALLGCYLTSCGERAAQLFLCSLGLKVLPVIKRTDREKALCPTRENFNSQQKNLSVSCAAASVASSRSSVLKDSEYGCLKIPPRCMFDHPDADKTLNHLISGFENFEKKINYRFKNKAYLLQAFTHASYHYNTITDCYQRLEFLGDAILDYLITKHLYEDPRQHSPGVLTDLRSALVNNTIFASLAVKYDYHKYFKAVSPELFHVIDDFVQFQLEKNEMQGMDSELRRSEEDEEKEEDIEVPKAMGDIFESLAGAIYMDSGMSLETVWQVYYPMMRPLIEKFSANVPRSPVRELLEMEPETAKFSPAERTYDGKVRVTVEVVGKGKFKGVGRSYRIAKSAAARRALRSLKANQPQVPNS
UniProt Q8NDV7: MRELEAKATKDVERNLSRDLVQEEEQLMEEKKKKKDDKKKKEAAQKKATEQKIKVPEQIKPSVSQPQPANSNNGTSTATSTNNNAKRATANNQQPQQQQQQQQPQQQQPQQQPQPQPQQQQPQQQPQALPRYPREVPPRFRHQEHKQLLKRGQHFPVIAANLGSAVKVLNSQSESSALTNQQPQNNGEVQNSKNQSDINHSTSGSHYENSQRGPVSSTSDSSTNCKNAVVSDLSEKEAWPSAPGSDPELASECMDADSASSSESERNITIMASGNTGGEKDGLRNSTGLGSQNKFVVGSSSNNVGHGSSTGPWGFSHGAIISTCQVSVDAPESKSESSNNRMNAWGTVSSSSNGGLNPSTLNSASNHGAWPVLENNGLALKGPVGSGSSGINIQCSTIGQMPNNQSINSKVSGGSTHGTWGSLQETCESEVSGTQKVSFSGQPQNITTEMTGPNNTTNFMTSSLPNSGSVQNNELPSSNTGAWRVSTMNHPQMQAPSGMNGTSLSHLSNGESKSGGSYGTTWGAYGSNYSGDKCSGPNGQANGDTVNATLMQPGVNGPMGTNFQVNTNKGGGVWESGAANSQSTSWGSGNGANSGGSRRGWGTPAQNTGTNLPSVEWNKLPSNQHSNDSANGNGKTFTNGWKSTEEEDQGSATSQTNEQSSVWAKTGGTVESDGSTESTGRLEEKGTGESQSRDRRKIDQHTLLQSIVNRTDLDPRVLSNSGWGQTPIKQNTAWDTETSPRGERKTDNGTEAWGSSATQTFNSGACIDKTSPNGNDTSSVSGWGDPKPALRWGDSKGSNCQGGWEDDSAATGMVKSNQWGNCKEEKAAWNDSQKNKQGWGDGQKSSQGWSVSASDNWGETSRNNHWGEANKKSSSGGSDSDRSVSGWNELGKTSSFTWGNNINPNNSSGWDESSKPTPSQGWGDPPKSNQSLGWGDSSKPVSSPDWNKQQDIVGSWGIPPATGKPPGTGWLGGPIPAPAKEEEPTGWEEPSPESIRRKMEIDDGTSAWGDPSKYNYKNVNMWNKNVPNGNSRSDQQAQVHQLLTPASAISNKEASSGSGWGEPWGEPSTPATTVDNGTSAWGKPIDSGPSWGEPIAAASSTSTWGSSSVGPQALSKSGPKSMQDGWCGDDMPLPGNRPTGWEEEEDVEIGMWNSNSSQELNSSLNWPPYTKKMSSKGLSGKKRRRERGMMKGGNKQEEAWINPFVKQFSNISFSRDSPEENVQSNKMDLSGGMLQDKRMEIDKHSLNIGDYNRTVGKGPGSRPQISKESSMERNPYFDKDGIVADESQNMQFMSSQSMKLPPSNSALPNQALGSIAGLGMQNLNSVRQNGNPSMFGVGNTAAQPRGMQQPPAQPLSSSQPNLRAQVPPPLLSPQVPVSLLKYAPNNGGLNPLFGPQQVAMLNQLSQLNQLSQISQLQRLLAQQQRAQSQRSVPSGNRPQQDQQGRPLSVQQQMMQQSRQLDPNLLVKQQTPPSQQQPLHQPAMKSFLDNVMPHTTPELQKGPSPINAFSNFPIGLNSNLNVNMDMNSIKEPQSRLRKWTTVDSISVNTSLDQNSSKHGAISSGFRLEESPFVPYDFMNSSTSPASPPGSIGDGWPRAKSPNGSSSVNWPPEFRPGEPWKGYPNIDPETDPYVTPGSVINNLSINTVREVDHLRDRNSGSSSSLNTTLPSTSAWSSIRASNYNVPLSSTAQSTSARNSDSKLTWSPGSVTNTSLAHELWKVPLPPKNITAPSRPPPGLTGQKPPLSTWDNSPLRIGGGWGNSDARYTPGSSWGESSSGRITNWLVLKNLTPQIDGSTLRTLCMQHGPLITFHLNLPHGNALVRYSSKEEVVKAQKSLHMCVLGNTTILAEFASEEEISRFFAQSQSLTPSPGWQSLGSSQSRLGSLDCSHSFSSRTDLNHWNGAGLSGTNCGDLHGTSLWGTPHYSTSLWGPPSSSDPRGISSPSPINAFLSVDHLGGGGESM

Columns and labels:
[1] = target: endogenous Argonaute 2 (AGO2) (human (endogenous in T47D)) (UniProt Q9UKV8); experiment: affinity purification with mass spectrometry; anti-AGO2 antibody (cross-linked to resin) IP of endogenous AGO2 from T47D cytoplasmic extract, no RNase; overnight 4°C; 6 washes in IP300 buffer (300 mM NaCl, 0.05% NP-40); control: mouse IgG resin; LC/MS/MS, SINQ
[2] = target: endogenous Argonaute 2 (AGO2) (human (endogenous in T47D)) (UniProt Q9UKV8); experiment: affinity purification with mass spectrometry; anti-AGO2 antibody IP of endogenous AGO2 from T47D cytoplasmic extract, treated with RNase (TurboNuclease); 6 washes in IP300 buffer; control: mouse IgG resin; LC/MS/MS, SINQ
[3] = target: Flag-HA-tagged AGO2 (human) (UniProt Q9UKV8); experiment: affinity purification with mass spectrometry; anti-Flag resin IP of Flag-AGO2 from nuclear extract of the stable T47D line, treated with RNase (TurboNuclease); 6 washes in IP300 buffer; control: Flag IP from T47D extract; LC/MS/MS, SINQ
[4] = target: endogenous Argonaute 2 (AGO2) (human (endogenous in T47D)) (UniProt Q9UKV8); experiment: affinity purification with mass spectrometry; anti-AGO2 antibody IP of endogenous AGO2 from T47D nuclear extract, no RNase (DNase added); 6 washes in IP300 buffer; control: mouse IgG resin; LC/MS/MS, SINQ
[5] = target: Flag-HA-tagged AGO2 (human) (UniProt Q9UKV8); experiment: affinity purification with mass spectrometry; anti-Flag resin IP of Flag-AGO2 from cytoplasmic extract of the stable T47D line, treated with RNase (TurboNuclease 1:10,000, 30 min, room temperature); 6 washes in IP300 buffer; control: Flag IP from T47D extract; LC/MS/MS, SINQ
[6] = target: endogenous Argonaute 2 (AGO2) (human (endogenous in T47D)) (UniProt Q9UKV8); experiment: affinity purification with mass spectrometry; anti-AGO2 antibody IP of endogenous AGO2 from T47D nuclear extract, treated with RNase (TurboNuclease); 6 washes in IP300 buffer; control: mouse IgG resin; LC/MS/MS, SINQ
[7] = target: Flag-HA-tagged AGO2 (human) (UniProt Q9UKV8); experiment: affinity purification with mass spectrometry; anti-Flag resin IP of Flag-AGO2 from cytoplasmic extract of the stable T47D line, no RNase; overnight 4°C; 6 washes in IP300 buffer (300 mM NaCl, 0.05% NP-40); control: Flag IP from T47D extract; LC/MS/MS, SINQ
[8] = target: Flag-HA-tagged AGO2 (human) (UniProt Q9UKV8); experiment: affinity purification with mass spectrometry; anti-Flag resin IP of Flag-AGO2 from nuclear extract of the stable T47D line, no RNase (DNase added); 6 washes in IP300 buffer; control: Flag IP from T47D extract; LC/MS/MS, SINQ

Substance | binding [1] | binding [2] | binding [3] | binding [4] | binding [5] | binding [6] | binding [7] | binding [8]
AGO3 (from UniProt Q9H9G7 1-860) | binds | binds | binds | binds | binds | binds | binds | 
TNRC6B (from UniProt Q9UPQ9 1-1833) | binds | binds | binds | binds | binds | binds | binds | 
TNRC6C (from UniProt Q9HCJ0 1-1936) | binds |  | binds | binds |  | binds | binds | binds

The next lines start with the values.

binding [1] | binding [2] | binding [3] | binding [4] | binding [5] | binding [6] | binding [7] | binding [8] | Substance
binds | binds |  |  | binds |  | binds | binds | Dicer (from UniProt Q9UPY3 1-1922)
binds |  | binds | binds | binds | binds | binds | binds | TNRC6A (GW182) (from UniProt Q8NDV7 1-1962)
